± gives the standard deviation. The entries are a selection whose mix differs from that of the whole data set. Many entries were measured with a wide error.
System: MILI (PIWIL2) piRISC loaded with piRNA #2 (26 nt)
Test: pre-steady-state target cleavage rate (min^-1); MIWI and MILI are mouse PIWI proteins and EfPiwi is from a freshwater sponge; tags in brackets are library labels; higher = faster piRNA-guided slicing of the target
Details: guide: piRNA #2 5'p-UUAGGUAACCCAGUAGAUCCAGAGGA; auxiliary factor: 500 nM mouse GTSF1
Method in brief: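 The pre-steady-state cleavage rate came from a burst-and-steady-state fit to pooled data from three Cleave-'n-Seq trials, in which uncleaved targets were sequenced and normalised to depth and to weakly complementary targets. Each reaction held 0.1 nM transcribed, DNA-blocked target RNA library and 1 nM active affinity-purified piRISC carrying one synthetic guide, with or without 500 nM GTSF1 partner protein, in HEPES–potassium acetate buffer at 33 °C for 0–8 or 0–960 min. k3 was capped at 0.0001 min^-1.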

Sequence | pre-steady-state target cleavage rate
CUUAAGGAGACCUACUACUGCGGUUACCUAA | 0.000208 ± 0.02
CUUAAGGACAGGAUCUUCUGGGUUACCUAA | 0.00551 ± 0.0093
CUUAAGGAGACCUAGUACUGGGUUACCUAC [g2:g15:cont:t1C] | 0.000251 ± 0.032
CUUAACCUCUUGGAUCUACUGGGUUACCUAA | 0.245 ± 0.072
CUUAAGGAGAGGAUCUAGAGGGUUACCUAA | 0.000349 ± 0.016
CUUAUCCUCUGGAUCUACUGGUGUUACCUAA | 0.00226 ± 0.0057
CUUAAGGAGACCAUCUACUGGGUUCCUAA | 0.000274 ± 0.021
CUUAAGGAGACCUAGAUGUAGGUUACCUAA | 0.000214 ± 0.039
CUUAAGGACUGGAACUUCUGGGUUACCUAA | 0.000917 ± 0.018
CUUAAGGAGACCUUCUACAGGGUUAGCUAA | 0.000914 ± 0.012
CUUAAGGAGACGAUCUAGUGGGUUACGUAA | 0.000368 ± 0.015
CUUAACCUCUGGAUCUACUGGGUAUGGAUA [g8:g25:cont:t1A] | 0.000301 ± 0.034
CUUAAGGAGACCAUCUACUGGCUUACGUAA | 0.000289 ± 0.033
CUUAAGGACUGGAUCUACUGGGUUCACCUAA | 0.00434 ± 0.01
CUUAAGGAGAGGAUCUACUUGGUUACCUAA | 0.00126 ± 0.008
CUUAAGGAGACGAUCUACAUGGGUUACCUAA | 0.000728 ± 0.013
CUUAAGGAGACCAUCUACUGGGUUACCAUA | 0.00091 ± 0.01
CUUAAGCUCUGGAGCUACUGGGUUACCUAA | 0.0783 ± 0.014
CUUAAGGAGACCUAGUAUCUGGGUUACCUAA | 0.000283 ± 0.029
CUUAAGGAGACCUUCAACAGGGUUACCUAA | 0.00032 ± 0.022
CUUAAGCUCUGGAUCUACAGGGUUACGUAA | 0.0394 ± 0.01
CUUAAGGAGACCUAGUACUGGGUUACCUUAA | 0.000313 ± 0.028
CUUAAGGAGACCUUCUACUGGGUAUGCUAA | 0.000285 ± 0.032
CUUAAGGAGAGGAUGUACUGGGAUACCUAA | 0.000307 ± 0.028

Some values from the list.
Value for CUUAAGGAGACCUAGUACUGGGUUACCUUAA under pre-steady-state target cleavage rate: 0.000313 ± 0.028
Value for CUUAAGGAGAGGAUGUACUGGGAUACCUAA under pre-steady-state target cleavage rate: 0.000307 ± 0.028
Value for CUUAAGGAGACCUAGAUGUAGGUUACCUAA under pre-steady-state target cleavage rate: 0.000214 ± 0.039
Value for CUUAAGCUCUGGAGCUACUGGGUUACCUAA under pre-steady-state target cleavage rate: 0.0783 ± 0.014

More records follow:

Sequence | pre-steady-state target cleavage rate
CUUAACCUCUGGAUCUACUGGGUUAGGAUA [g6:g25:cont:t1A] | 0.00129 ± 0.0089
CUUAUCCCUCUGGAUCUACUGGGUUACCUAA | 0.0911 ± 0.022
CUUAAGGAGACCAUCUACAGGGAUACCUAA | 0.00131 ± 0.007
CUUAAGGAGACCUUCUACAGGGAUACCUAA | 0.000602 ± 0.011
CUUAAGGAGACCUACUACUAGGGUUACCUAA | 0.00055 ± 0.016
CUUAAGGAGUCGAUCUAGUGGGUUACCUAA | 0.00104 ± 0.0073
CUUAAGGAGACGAUCUACACGGUUACCUAA | 0.000636 ± 0.034
CUUAAGGAGACGAUCUCUGGGUUACCUAA | 0.000632 ± 0.0096
CUUAAGGAGAGGAUGUACUGCGUUACCUAA | 0.00058 ± 0.016
CUUAAGGAGACCUACUACUGGGUUACCAAA | 0.000235 ± 0.028
CUUAAGCUCAGGAUCAACUGGGUUACCUAA | 0.0432 ± 0.014
CUUAAGGAGACCUAGUACUGGGAUUCCUAA | 0.000819 ± 0.012
CUUAAGCUCUGGAUCUACUCGGGUUACCUAA | 0.00162 ± 0.0071
CUUAAGGAGUGGAUCUACUGGGAAACCUAA | 0.0025 ± 0.0056
CUUAAGGAGUGGAUCUACUGGGCUACCUAA | 0.000478 ± 0.02
CUUAAGGAGACGAUGUUCUGGGUUACCUAA | 0.000307 ± 0.025
CUUAAGGAGACCAUCUCACUGGGUUACCUAA | 0.00023 ± 0.038
CUUAAGGAGACCUACUACUGGGUUACCUAC [g2:g16:cont:t1C] | 0.000167 ± 0.017
CUUAAGGACUGGAUCUAUGGGUUACCUAA | 0.00281 ± 0.0095
CUUAAGGAGAGGAUCUACUGCCAUACCUAA | 0.00011 ± 0.026
CUUAACCUCUGCAUCUACUGGCUUACCUAA | 0.00389 ± 0.004
CUUAAGGAGACCUUCUAGUGGCUUACCUAA | 0.000344 ± 0.019
CUUAAGGACUGGAUCUACUGGGUAACCUUA | 0.000502 ± 0.027
CUUAAGGACUGGAUCUACUCGGUUACCUAA | 0.000893 ± 0.019

Sequence | pre-steady-state target cleavage rate
CUUAAGGAGUGGAUCUAGUGGGUUACGUAA | 0.000281 ± 0.015
CUUAAGGAGUGGAUCUACCUGGGUUACCUAA | 0.000764 ± 0.013
CUUAAGGAGAGGAUCUACUGGGUAACCUUA | 0.00116 ± 0.0075
CUUAAGGAGAGGAUCUACUGGGUUACCUGA | 0.00228 ± 0.0058
CUUAAGGAGAGGAUCUACUGGGUUUCCAAA | 0.000306 ± 0.029
CUUAAGGAGACCACUACUGGGUUACCUAA | 0.000742 ± 0.014
CUUAAGGAGUGGAUCUUCUGCGUUACCUAA | 0.00138 ± 0.0093
CUUAUCCUCUGGAUCUACUGCGUUAGCUAA | 0.00192 ± 0.0068
CUUAAGGAGACCAUCUAUGGGUUACCUAA | 0.000346 ± 0.028
CUUAAGGAGUGGAUCUACUGGGUUACUAA | 0.00233 ± 0.0059
CUUAAGCUCUGGAUCUACUGGGUUUGCUAA | 0.144 ± 0.031
CUUAAGGACUGGAUGCUACUGGGUUACCUAA | 0.00666 ± 0.0099
CUUAAGGUCUGGAUCUCUGGGUUACCUAA | 0.000711 ± 0.032
CUUAAGGAGACCUUCAACUGGGUUUCCUAA | 0.000326 ± 0.022
CUUAAGGAGACGAUCUAGUGGGUAACCUAA | 0.00118 ± 0.0088
CUUAUCCUCUGGAUCUACUGCCAUACCUAA | 0.000513 ± 0.013
CUUAAGGAGACCAUCUACUGGGUUGCCUAA | 0.000483 ± 0.02
CUUAAGGAGAGGAUCUACUGAGGUUACCUAA | 0.000483 ± 0.0088
CUUAAGGAGUGGUUCUACUGGGAUACCUAA | 0.00288 ± 0.0041
CUUAAGCUGUGGAUCUACUCGGUUACCUAA | 0.000408 ± 0.02
CUUAAGGAGAGGAACUACUGGGUUAGCUAA | 0.000592 ± 0.024
CUUAAGGACUGGAUCUACUGGGAUACCUAA | 0.00837 ± 0.0099
CUUAAGGACUGGAUCUACUGAGUUACCUAA | 0.00767 ± 0.0096

From the supplement of paper PMC10338343
